Assay results from doi:10.1101/2020.12.02.407650.
These are yes or no findings as the source states them, for the method shown. In cells and extracts the contact can be indirect. Some results given as binding are weak or reduced against the parent protein; the word gives no strength.

Amino acid sequences for entries named in this document (tags omitted).
UniProt P37238: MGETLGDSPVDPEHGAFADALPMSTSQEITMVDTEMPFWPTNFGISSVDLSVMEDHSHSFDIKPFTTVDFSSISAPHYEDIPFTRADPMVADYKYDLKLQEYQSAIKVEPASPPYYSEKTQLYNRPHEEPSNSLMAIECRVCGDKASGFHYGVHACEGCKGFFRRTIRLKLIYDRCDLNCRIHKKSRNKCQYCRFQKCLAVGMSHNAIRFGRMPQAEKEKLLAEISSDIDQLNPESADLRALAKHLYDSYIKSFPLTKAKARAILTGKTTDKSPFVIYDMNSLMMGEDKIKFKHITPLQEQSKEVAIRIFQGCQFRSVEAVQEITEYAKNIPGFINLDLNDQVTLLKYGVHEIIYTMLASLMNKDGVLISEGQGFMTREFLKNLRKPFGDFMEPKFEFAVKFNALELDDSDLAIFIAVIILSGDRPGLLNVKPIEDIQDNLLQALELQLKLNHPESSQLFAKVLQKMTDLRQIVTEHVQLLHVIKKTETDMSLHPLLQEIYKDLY

Molecular target: T1, PPARγ coactivator-1α (PGC-1α) (mouse (endogenous in brown and white adipocytes from mouse SVFs)) (UniProt O70343)
T1 sequence: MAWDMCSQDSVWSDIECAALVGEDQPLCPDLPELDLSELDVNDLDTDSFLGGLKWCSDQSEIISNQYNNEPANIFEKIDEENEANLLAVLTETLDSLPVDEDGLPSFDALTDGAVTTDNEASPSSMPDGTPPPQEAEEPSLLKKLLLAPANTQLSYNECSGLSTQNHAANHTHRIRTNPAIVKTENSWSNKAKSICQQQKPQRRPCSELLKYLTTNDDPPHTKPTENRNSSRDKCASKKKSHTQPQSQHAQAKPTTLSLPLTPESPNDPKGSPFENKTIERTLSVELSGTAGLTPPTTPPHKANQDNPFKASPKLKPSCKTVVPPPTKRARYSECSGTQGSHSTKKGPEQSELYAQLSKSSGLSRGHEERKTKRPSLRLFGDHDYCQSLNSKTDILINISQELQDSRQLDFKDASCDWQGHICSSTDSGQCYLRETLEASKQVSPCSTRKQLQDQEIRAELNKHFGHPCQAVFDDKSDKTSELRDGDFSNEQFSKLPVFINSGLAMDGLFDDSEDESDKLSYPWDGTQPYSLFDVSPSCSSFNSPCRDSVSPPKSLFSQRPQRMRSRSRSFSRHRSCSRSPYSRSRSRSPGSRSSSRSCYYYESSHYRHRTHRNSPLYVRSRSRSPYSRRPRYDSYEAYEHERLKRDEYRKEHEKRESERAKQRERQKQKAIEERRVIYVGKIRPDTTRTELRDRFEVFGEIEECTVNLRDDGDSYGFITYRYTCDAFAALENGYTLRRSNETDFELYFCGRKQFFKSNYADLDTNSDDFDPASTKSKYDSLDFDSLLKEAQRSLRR
Experiment: co-IP

With “peroxisome proliferator-activated receptor gamma (PPARγ) (from UniProt P37238 1-505)” the binding was “binds”.
